Measured values published in the supplement of paper PMC12889115.
Some of the results follow. Values are raw readings; no control value is given beside them.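 Primary screen: polymyxin B was added at a level permeabilizing Salmonella outer membranes while sparing inner membranes. DMSO wells, both with and without polymyxin B, established maximum growth. Plate-to-plate variation meant each plate was ranked on its own, and the lowest-OD600 compounds were selected as hits.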

System: Salmonella enterica serovar Typhimurium SL1344
Assay: bacterial growth OD600 after 18 h with compound and polymyxin B; higher = more bacterial growth (less inhibition)
Conditions: 50 µM, Mueller-Hinton broth

| Compound | bacterial growth OD600 (polymyxin B 0.75 µg/mL) | bacterial growth OD600 (polymyxin B 1 µg/mL) |
| --- | --- | --- |
| CSc1ccccc1C(=O)NCc1c(C)ncc2c1CCN(C(=O)Cc1ccccc1)C2 | 0.829 | – |
| CCN1C(=O)CC(CC(=O)N2CCN(C3CCCCC3)C(=O)C2)(c2cccc(C(F)(F)F)c2)C1=O (stereo not given) | 0.984 | – |
| COc1cccc(CN2CCC(CO)(CCCc3ccccc3)CC2)c1OC | – | 0.861 |
| Cc1c(CC(=O)NCc2ccncn2)c2c(n1Cc1ccccc1)CCCC2=O | – | 1.09 |
| Cc1ccc(-n2ncc3c2CCCC3NC(=O)CCN2CCCC2=O)cc1C (stereo not given) | – | 0.903 |
| CCC1CN(CC(=O)NCCc2cccs2)Cc2cc(OC)ccc2O1 (stereo not given) | 0.789 | – |
| Cc1noc(C)c1C(=O)N(C)CC1CCCN(CCc2ccc(F)cc2)C1 (stereo not given) | – | 0.772 |
| COc1ccc(OC)c(-c2cc(Cl)c3c(c2)CC(CNC(=O)C(C)n2nc(C)cc2C)O3)c1 (stereo not given) | 0.02 | – |
| C=CCN(CC=C)C(=O)C1CCCN(c2nc(C)c3ccc(OC)cc3n2)C1 (stereo not given) | 0.005 | – |
| COc1cccc(CN2CCOc3ccc(CN4CCC(Oc5cccnc5)CC4)cc3C2)c1OC | 0.812 | – |
| O=C1O[C@@H]2CN(C3CSCCSC3)C[C@@H]2N1CCc1cccc(Cl)c1 | – | 0.964 |
| CCN(CC)C1CCN(C(=O)c2csc3nc(-c4ccccc4)cn23)C1 (stereo not given) | – | 0.902 |
| COc1cc(C(=O)N2CCN(C)C(=O)[C@@H]2C)ccc1OC1CCN(C2CCCC2)CC1 | 0.828 | – |
| COc1ccc(-c2n[nH]cc2CN(C)Cc2cccc(C(F)(F)F)c2)c(OC)c1 | – | 0.894 |
| Cc1cc(C)c2[nH]c(C(=O)NCC3CC(Cc4ccc(F)cc4)=NO3)c(C)c2c1 (stereo not given) | 0.842 | – |
| CC(C)CCNC(=O)c1cn(CC(C)C)cc(C(=O)N2CCN(c3ccccc3)CC2)c1=O | 0.913 | – |
| COc1ccc(CCc2nnc(CCC(=O)N(C)Cc3ccnc4ccccc34)o2)cc1 | – | 0.813 |
| CC(C)[C@H]1CN(C)CCN1C(=O)c1cc(COc2ccc(F)cc2F)[nH]n1 | – | 1.04 |
| CC(C)CCC(=O)N1CCC(N2CCCC(C(=O)NC3CC3)C2)CC1 (stereo not given) | 0.865 | – |
| CCOC(=O)CN(C)C(=O)C1CCC(=O)N(CCc2ccc(OC)cc2)C1 (stereo not given) | – | 0.932 |
| CN(Cc1cnccn1)C(=O)CC(c1ccccc1)c1cccc(Cl)c1 (stereo not given) | – | 0.721 |
| Cc1oc(-c2ccc(NC(=O)Cc3ccccc3)cc2)nc1CNC(=O)c1cscn1 | 0.012 | – |
| Cc1ccccc1Cn1cc(C(=O)N2CCC(C(O)CCc3ccccc3)CC2)nn1 (stereo not given) | – | 0.769 |
| CCCn1cc(CN(CCc2ccccc2)CC2CCCN(C)C2)c(C)n1 (stereo not given) | – | 1.18 |
| CO[C@H]1[C@H](NC(=O)c2ccco2)c2ccccc2C12CCN(Cc1cc3ccccc3s1)CC2 | 0.005 | – |
| CC#CC(=O)N1CCCC(Nc2ccc(C(C)C)cc2)C1 (stereo not given) | – | 0.879 |
| C=CCCC(=O)NC1CCCN(Cc2ccc(CC(C)C)cc2)C1 (stereo not given) | – | 1.04 |
| CCCNC(=O)N1CCC2(CCCN(CC3CCCCC3)C2=O)C1 (stereo not given) | – | 0.841 |
| O=C(Nc1ccc(Oc2ccccc2)nc1)C1CCCCN1Cc1cccnc1 (stereo not given) | 0.83 | – |
| COCCNC(=O)c1ccc(OC2CCN(C3CCCCC3)CC2)c(Cl)c1 | – | 0.836 |

Looked up above.
bacterial growth OD600 (polymyxin B 1 µg/mL), Cc1noc(C)c1C(=O)N(C)CC1CCCN(CCc2ccc(F)cc2)C1 (stereo not given) is entered as 0.772
bacterial growth OD600 (polymyxin B 1 µg/mL), CCCNC(=O)N1CCC2(CCCN(CC3CCCCC3)C2=O)C1 (stereo not given) is entered as 0.841
